Results are given in words; binding and its absence hold for the method and conditions named. In cells and extracts the contact can be indirect. These calls come from enrichment with a bait or labelling near it, and not all partners need be listed. For some of these results: A no says only that the protein was not detected with the bait. Where a sequence is shown, tags or fusion partners need not be part of it.
What was measured:
Assay in all cases: affinity purification with mass spectrometry; purified MBP-labelled TF homolog incubated with total protein of its corresponding M. xanthus deletion cells; Dextrin Beads; wash 25 mM Tris-HCl, 200 mM NaCl, pH 7.8; eluted with 10 mM maltose; detected by MS; only the target purified
[1] = target: T1, MXAN_1178-MBP (M. xanthus DK1622) (UniProt Q1DD35)
T1 sequence: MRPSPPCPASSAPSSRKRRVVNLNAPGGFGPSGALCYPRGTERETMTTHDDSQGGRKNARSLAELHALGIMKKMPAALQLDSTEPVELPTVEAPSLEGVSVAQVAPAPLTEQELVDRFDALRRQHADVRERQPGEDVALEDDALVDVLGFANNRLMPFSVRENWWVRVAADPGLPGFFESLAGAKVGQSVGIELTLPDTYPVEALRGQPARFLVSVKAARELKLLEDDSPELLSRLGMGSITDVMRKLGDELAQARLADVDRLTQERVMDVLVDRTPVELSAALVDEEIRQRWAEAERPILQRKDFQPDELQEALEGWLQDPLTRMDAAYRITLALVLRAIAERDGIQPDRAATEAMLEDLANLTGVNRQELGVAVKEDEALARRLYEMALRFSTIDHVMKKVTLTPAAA

[2] = target: T2, MXAN_6153-MBP (M. xanthus DK1622) (UniProt Q1CZ89)
T2 sequence: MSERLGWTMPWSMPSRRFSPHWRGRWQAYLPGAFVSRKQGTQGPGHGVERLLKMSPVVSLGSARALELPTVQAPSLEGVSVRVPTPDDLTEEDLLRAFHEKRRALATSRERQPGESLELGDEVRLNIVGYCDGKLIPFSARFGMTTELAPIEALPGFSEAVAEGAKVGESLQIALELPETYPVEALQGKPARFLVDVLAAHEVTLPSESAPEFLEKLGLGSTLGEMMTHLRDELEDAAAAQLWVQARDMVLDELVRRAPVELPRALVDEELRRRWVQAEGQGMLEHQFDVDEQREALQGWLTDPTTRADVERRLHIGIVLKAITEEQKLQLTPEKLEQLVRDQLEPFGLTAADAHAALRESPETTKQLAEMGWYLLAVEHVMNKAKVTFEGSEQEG

[3] = target: T3, MXAN_2013-MBP (M. xanthus DK1622) (UniProt Q1DAT1)
T3 sequence: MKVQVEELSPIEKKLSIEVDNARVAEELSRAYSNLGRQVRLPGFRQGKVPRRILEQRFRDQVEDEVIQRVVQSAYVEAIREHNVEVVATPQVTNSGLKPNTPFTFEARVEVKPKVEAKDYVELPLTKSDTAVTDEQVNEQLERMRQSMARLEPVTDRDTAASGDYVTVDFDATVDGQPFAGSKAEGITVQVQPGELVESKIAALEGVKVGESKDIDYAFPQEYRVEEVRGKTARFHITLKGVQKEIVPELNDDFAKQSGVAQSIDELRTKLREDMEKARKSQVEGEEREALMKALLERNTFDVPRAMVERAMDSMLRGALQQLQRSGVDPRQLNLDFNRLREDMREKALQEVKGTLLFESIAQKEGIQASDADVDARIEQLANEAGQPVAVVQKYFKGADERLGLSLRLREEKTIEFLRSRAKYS

[4] = target: T4, MXAN_1713-MBP (M. xanthus DK1622) (UniProt Q1DBK9)
T4 sequence: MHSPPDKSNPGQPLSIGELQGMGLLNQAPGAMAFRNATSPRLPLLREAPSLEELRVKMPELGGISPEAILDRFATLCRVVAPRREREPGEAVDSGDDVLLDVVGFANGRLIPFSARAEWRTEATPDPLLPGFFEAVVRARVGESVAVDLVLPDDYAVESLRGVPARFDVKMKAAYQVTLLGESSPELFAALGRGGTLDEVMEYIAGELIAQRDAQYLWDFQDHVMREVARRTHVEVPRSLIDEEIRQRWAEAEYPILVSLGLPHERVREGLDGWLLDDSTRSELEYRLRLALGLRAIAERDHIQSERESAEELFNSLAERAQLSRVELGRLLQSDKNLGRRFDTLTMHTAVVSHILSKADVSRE

For OmpA, the binding [1] was “binds”, the binding [2] was “binds” and the binding [3] was “no binding”. The binding [4] was “binds”.

From PMC11559001
